{
  "source": "patent US11491147B2",
  "about": "“Combination drug therapy reduces PARP-1 related DNA repair and increases the efficacy of genotoxic agents” (Indiana University Research and Technology Corporation, priority 2016, dated 2022)",
  "tested_on": "MCF7, T47D, MDA-MB-231, and MDA-MB-468 cells",
  "test": "Colony formation survival assay, four breast cancer cell lines",
  "note": "For at least one compound, name, drawing or mass did not settle the structure.",
  "data": [
    {"smiles": "COCCCOc1ccnc(C[S+]([O-])c2nc3ccccc3[nH]2)c1C", "note": "(stereo not shown) [rabeprazole]", "values": [
      {"measurement": "inhibition of breast cancer cell survival, comparison among PPIs", "result": "much less potent than lansoprazole"}
    ]}
  ]
}
